According to patent US20260265233A1, “BENZOTHIOPHENE DERIVATIVES AS RXFP1 AGONISTS” (BRISTOL-MYERS SQUIBB COMPANY, priority 2021, published 2026):
The match of structure and compound is tentative.

Chains of the proteins cited; added tags and fusions are not shown.
UniProt Q9HBX9, whole entry: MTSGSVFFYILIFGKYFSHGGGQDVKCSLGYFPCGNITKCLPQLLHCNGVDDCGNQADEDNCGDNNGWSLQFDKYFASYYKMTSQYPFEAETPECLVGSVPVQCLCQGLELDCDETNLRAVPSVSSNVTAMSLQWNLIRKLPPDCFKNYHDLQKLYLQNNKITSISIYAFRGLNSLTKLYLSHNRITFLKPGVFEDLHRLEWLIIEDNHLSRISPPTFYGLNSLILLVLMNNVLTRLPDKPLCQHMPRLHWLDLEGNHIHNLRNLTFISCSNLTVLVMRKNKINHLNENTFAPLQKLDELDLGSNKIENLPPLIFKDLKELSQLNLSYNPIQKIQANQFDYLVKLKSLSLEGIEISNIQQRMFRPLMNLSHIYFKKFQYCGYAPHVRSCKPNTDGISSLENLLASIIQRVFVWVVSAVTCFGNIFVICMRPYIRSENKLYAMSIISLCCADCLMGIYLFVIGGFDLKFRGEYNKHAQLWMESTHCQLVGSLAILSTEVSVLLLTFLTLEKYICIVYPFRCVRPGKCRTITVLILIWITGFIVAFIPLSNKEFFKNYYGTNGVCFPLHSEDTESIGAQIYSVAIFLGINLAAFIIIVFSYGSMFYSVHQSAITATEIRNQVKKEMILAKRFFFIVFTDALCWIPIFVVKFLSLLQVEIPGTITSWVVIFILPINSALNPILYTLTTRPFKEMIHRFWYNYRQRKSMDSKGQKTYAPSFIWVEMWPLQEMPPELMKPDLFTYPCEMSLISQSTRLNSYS

Molecular target: human RXFP1 (Homo sapiens, UniProt Q9HBX9)
Test: hRXFP1 HEK293 cAMP assay (HTRF)
Conditions: read-out: cAMP hRXFP1 HEK293 Assay EC50; HEK293 cells stably expressing human RXFP1; 30 min at rt; intracellular cAMP by HTRF
Protocol: RXFP1 Cyclic Adenosine Monophosphate (cAMP) Assays. Human embryonic kidney cells 293 (HEK293) cells and HEK293 cells stably expressing human RXFP1, were cultured in MEM medium supplemented with 10% qualified FBS, and 300 μg/ml hygromycin (Life Technologies). Cells were dissociated and suspended in assay buffer. The assay buffer was HBSS buffer (with calcium and magnesium) containing 20 mM HEPES, 0.05% BSA, and 0.5 mM IBMX. Cells (3000 cells per well, except 1500 cell per well for HEK293 cells stably expressing human RXFP1) were added to 384-well Proxiplates (Perkin-Elmer). Cells were immediately treated with test compounds in DMSO (2% final) at final concentrations in the range of 0.010 nM to 50 μM. Cells were incubated for 30 min at rt. The level of intracellular cAMP was determined using the HTRF HiRange cAMP assay reagent kit (Cisbio) according to manufacturer's instructions. Solutions of cryptate conjugated anti-cAMP and d2 fluorophore-labelled cAMP were made in a supplied lysis buffer separately. […] After a 1 h rt incubation, time-resolved fluorescence intensity was measured using the Envision (Perkin-Elmer) at 400 nm excitation and dual emission at 590 nm and 665 nm. […] The potency and activity of a compound to […] cAMP production was then determined by fitting to a 4-parametric logistic equation from a plot of cAMP level versus compound concentrations. […]

## COc1ccc(S(=O)(=O)N2CCC(C(=O)O)CC2)cc1C(=O)Nc1c(C(=O)Nc2ccc(F)c(C(F)(F)F)c2)sc2cc(C(F)(F)F)ccc12
  EC50: 3.58 µM
